# From the supplement of paper PMC10398353
# “And” between values parts separate entries of the source, which are not always exact repeats. Identical values can stand only once. Counter-ions that a name gives are not always drawn. ± gives the standard deviation of the averaged measurements. Some of the results follow. This is a noisy data set.
# Tested on: Salmonella enterica serovar Typhimurium ST313 D23580
# Experiment: normalized bacterial growth (OD600 20 h minus 0 h, interquartile-mean normalized) (fraction of plate interquartile mean); higher = more bacterial growth (less inhibition)
# Conditions: LPM (pH 5.8, low phosphate, low Mg2+), concentration: 10 µM, temperature: 37 °C
row,SMILES,normalized bacterial growth
1,C[C@@H]1C[C@@H]([C@H](O)CC2CC(=O)NC(=O)C2)C(=O)[C@@H](C)C1,0.542
2,COc1cc2c(cc1O)CCN[C@@H]2C,1.14 ± 0.056
3,O=C(NC(=O)c1c(F)cccc1F)Nc1ccc(Cl)cc1,1.29
4,c1ccc2c(c1)OCC(C1=NCCN1)O2 (stereo not given) [Idazoxan hydrochloride],0.822
5,CC(C)Nc1nc(Cl)nc(NC(C)C)n1,0.905
6,N#Cc1c(Cl)c(Cl)c(Cl)c(C#N)c1Cl,1.02
7,C=C1C/C(=C/C)C(=O)O[C@@H]2CCN3CC=C(COC(=O)[C@]1(C)O)[C@H]23,0.966
8,O=S1OCC2C(CO1)C1(Cl)C(Cl)=C(Cl)C2(Cl)C1(Cl)Cl (stereo not given),1.25
9,CCCN(CCC)[C@H]1CCc2c(F)ccc(O)c2C1 [S(-)-UH-301 hydrochloride],1.21
10,COc1ccc(CC2NCCc3cc(OC)c(OC)cc32)cc1OC (stereo not given),1.06
11,CCCCCC[C@H]1C(=O)O[C@H](C)[C@H](NC(=O)c2cccc(NC=O)c2O)C(=O)O[C@@H](C)[C@@H]1OC(=O)CC(C)C [Antimycin A],0.792
12,COc1cc2c(c3oc4cccc(O)c4c(=O)c13)[C@@H]1C=CO[C@@H]1O2,0.963
13,CC[N+]1(C)CCCC(OC(=O)C(O)(c2ccccc2)c2ccccc2)C1 (stereo not given),0.995
14,CC1=C2C(=CO[C@H](C)[C@H]2C)C(O)=C(C(=O)O)C1=O,0.95 ± 0.11
15,"C[C@]12CC[C@@H](O)C[C@@H]1CC[C@@H]1[C@@H]2CC[C@]2(C)[C@@H](C(=O)CO)CC[C@@H]12 [""3-alpha,21-Dihydroxy-5-alpha-pregnan-20-one""]",0.736
16,CC1C=CC=CCCC=CC=CC=CC=CC(OC2OC(C)C(O)C(N)C2O)CC2OC(O)(CC(O)C(O)CCC(O)CC(O)CC(O)CC(=O)OC(C)C(C)C1O)CC(O)C2C(=O)O (stereo not given),1.33
17,"COc1ccc2c(c1OC)CN1CCc3cc4c(cc3C1C2)OCO4 (stereo not given) [""(d,l)-Tetrahydroberberine""]",0.843
18,CC(=O)O[C@H]1CC[C@@]2(C)[C@H](CC[C@@H]3[C@@H]2CC[C@]2(C)[C@@H](C4=CC(=O)OC4)[C@@H](OC(C)=O)C[C@]32O)C1,0.838
19,C[C@H]1O[C@@H](O[C@H]2CC[C@]3(C=O)[C@H]4CC[C@]5(C)[C@@H](C6=CC(=O)OC6)CC[C@]5(O)[C@@H]4CC[C@]3(O)C2)C[C@H](O)[C@@H]1O [Helveticoside],1.17
20,"CC(N)C(O)c1ccc(O)c(O)c1 (single isomer, unassigned; (-)) [(-)-alpha-Methylnorepinephrine]",0.801
21,C[C@@H]1C[C@H](O)[C@@]2(O)[C@]13CC(=O)OC[C@@]2(C)[C@@](C)(O)C(=O)C3,1.48
22,COC1=CC(=O)O[C@@H](/C=C/c2ccc3c(c2)OCO3)C1,0.919
23,N#C[C@H](O[C@@H]1O[C@H](CO[C@@H]2O[C@H](CO)[C@@H](O)[C@H](O)[C@H]2O)[C@@H](O)[C@H](O)[C@H]1O)c1ccccc1,0.84
24,CC[C@@H](CO)NC(=O)[C@@H]1C=C2c3cccc4c3c(cn4C)C[C@H]2N(C)C1 [Methysergide maleate],0.923
25,CC(C)C1CNC(C(=O)O)C1CC(=O)O (stereo not given) [Dihydrokainic acid],1.12
26,COc1cc2c(c(OC)c1OC)-c1ccc(OC)c(=O)cc1[C@@H](NC(C)=O)CC2,0.96
27,COc1ccc2c(c1)[C@@]13CCCC[C@H]1[C@@H](C2)NCC3 [3-Methoxy-morphanin hydrochloride],1.27

row,SMILES,normalized bacterial growth
1,Cc1cc([C@@H]2CCCN2C)on1 [ABT-418 hydrochloride],1.14
2,CC[C@H](C)/C=C(C)/C=C/C1=CC2=C(Cl)C(=O)[C@](C)(OC(C)=O)C(=O)C2=CO1,0.708
3,O=[N+]([O-])c1ncc[nH]1,0.893
4,CC(=O)O[C@H]1CC[C@@]2(C)C(=CC[C@@H]3[C@@H]2CC[C@]2(C)C(=O)CC[C@@H]32)C1 [Dehydroisoandosterone 3-acetate],0.941
5,N#CC(C#N)=Cc1cc(O)c(O)c(O)c1 [Tyrphostin 25],1.1
6,CN1C[C@H](CNC(=O)OCc2ccccc2)C[C@@H]2c3cccc4c3c(cn4C)C[C@H]21,0.797
7,CN1C[C@H](CNC(=O)OCc2ccccc2)C[C@@H]2c3cccc4c3c(cn4C)C[C@H]21 [Metergoline],0.963
8,COC1=CC(=O)O[C@@H](/C=C/c2ccccc2)C1 [Kawain],0.946
9,COC1=CC(=O)O[C@@H](/C=C/c2ccccc2)C1 (racemic),1.1
10,Oc1ccc2c3c1O[C@H]1[C@@H](O)CC[C@@]4(O)[C@@H](C2)N(CC2CCC2)CC[C@]314 [Nalbuphine hydrochloride],1.15
11,Oc1ccc2c3c1O[C@H]1[C@@H](O)CC[C@@]4(O)[C@@H](C2)N(CC2CCC2)CC[C@]314,1.25
12,O=C(O)CC[N+](=O)[O-] [3-Nitropropionic acid],1.02
13,COC(=O)C[C@](O)(CCC(C)(C)O)C(=O)O[C@@H]1C(OC)=C[C@]23CCCN2CCc2cc4c(cc2[C@H]13)OCO4,0.979
14,OCc1cnc[nH]1 [4-Imidazolemethanol hydrochloride],1.13
15,C/C=C/c1ccc2c(c1)OCO2,1.32
16,CN1CCc2cc3c(cc2[C@H]1[C@@H]1OC(=O)c2c1ccc1c2OCO1)OCO3,1.17 and 1.09
17,Cc1nc(-c2ccc(-c3ccc(C(=O)N4CCc5cc6c(cc54)C4(CCN(C)CC4)CO6)cc3)c(C)c2)no1,0.996
18,C[C@]12CC[C@H](O)C[C@H]1CC[C@@H]1[C@@H]2CC[C@]2(C)[C@@H](C3=CC(=O)OC3)CC[C@]12O [Digitoxigenin],0.935
19,Cc1nccc2c1[nH]c1cc(O)ccc12,1.16
20,CC(C)c1cc2c(c(O)c1O)[C@@]1(C(=O)O)CCCC(C)(C)[C@@H]1CC2,1.02 ± 0.025
21,CCCCCCC(C)OC(=O)COc1ccc(Cl)cc1Cl (stereo not given),0.61
22,CC(C)c1cccc(C(C)C)c1O [Propofol],1.02
23,CCCN1CCC[C@@H]2Cc3n[nH]cc3C[C@H]21 [()-Quinpirole dihydrochloride],1.13
24,CCCN1CCC[C@@H]2Cc3n[nH]cc3C[C@H]21 [(-)-Quinpirole hydrochloride],1.16
25,C[C@]1(C(=O)O)CCC[C@]2(C)c3cc(O)ccc3CC[C@@H]12,1.04
26,N[C@H](CO)Cc1ccccc1,0.93
27,Cc1[nH]c2ccccc2c1CN(C)C,0.925

row,SMILES,normalized bacterial growth
1,C[C@]12CCC(=O)C=C1C=C[C@@H]1[C@@H]2CC[C@@]2(C)[C@H]1CC[C@@]2(O)CCC(=O)O,0.997
2,C[C@]12CCC(=O)C=C1C=C[C@@H]1[C@@H]2CC[C@@]2(C)[C@H]1CC[C@@]2(O)CCC(=O)O [Canrenoic acid potassium salt],1.11
3,CCOP(=S)(OCC)SCn1c(=O)oc2cc(Cl)ccc21,1.01
4,O=C(O)COc1ccc(Cl)cc1Cl,1.26
5,CCNc1nc(Cl)nc(NCC)n1,1.13
6,Cc1cccc(C)c1NC(=O)CN1CCCC1=O [Nefiracetam],1.14
7,CO[C@H]1[C@H](O)[C@H](O[C@H]2CC[C@@]3(C=O)[C@H](CC[C@@H]4[C@@H]3CC[C@]3(C)[C@@H](C5=CC(=O)OC5)CC[C@]43O)C2)O[C@@H](C)[C@@H]1O,1.01 ± 0.072
8,"COc1ccc2[nH]c3c(c2c1)CCNC3 [""6-Methoxy-1,2,3,4-tetrahydro-9H-pyrido[3,4b] indole""]",0.729
9,CC[C@@H](C(=O)[C@@H](C)[C@@H](O)[C@H](C)[C@@H]1O[C@@H]([C@@H](CC)C(=O)O)CC[C@@H]1C)[C@H]1O[C@]2(C=C[C@@H](O)[C@]3(CC[C@@](C)([C@H]4CC[C@](O)(CC)[C@H](C)O4)O3)O2)[C@H](C)C[C@@H]1C,0.946 and 0.667
10,CC(=O)O[C@@H]1[C@H]2CC[C@H]3[C@@](C)(O)[C@@H]4C[C@H](O)C(C)(C)[C@@]4(O)[C@H](O)C[C@@]13C[C@@]2(C)O,1
11,C(#CCN1CCCC1)CN1CCCC1 [Tremorine dihydrochloride],1.03
12,N#CC(C#N)=Cc1ccc(O)c(O)c1 [Tyrphostin 23],0.867
13,CC(C)[C@H]1C(=O)O[C@@H]2CCN3CC=C(COC(=O)[C@](C)(O)[C@]1(C)O)[C@H]23,1.18
14,CN1CC[C@]2(CCN3CCc4c(oc5ccccc45)[C@@H]3C2)N(C)C1=O,0.884
15,COP(=O)(OC)OC=C(Cl)Cl,1.14
16,C[C@H]1CC[C@]2(NC1)O[C@H]1C[C@H]3[C@@H]4CC[C@H]5C[C@@H](O)CC[C@]5(C)[C@H]4CC[C@]3(C)[C@H]1[C@@H]2C,0.742 and 0.98
17,"CCCC[N+]1(C)[C@@H]2C[C@@H](OC(=O)[C@H](CO)c3ccccc3)C[C@H]1[C@@H]1O[C@@H]12 (stereo partly drawn) [""(-)-Scopolamine,n-Butyl-, bromide""]",1.04
18,S=C=NCc1ccccc1,1.18
19,C=CCc1ccc2c(c1)OCO2,1.24
20,CCCC(C)C1(CC)C(=O)NC(=O)NC1=O (stereo not given),1.09
21,CNC1CC(N)C(O)C(OC2OC(CO)C(O)C3OC4(OC(C(N)CO)C(O)C(O)C4O)OC23)C1O (stereo not given),1.15
22,COP(=O)(OC)C(O)C(Cl)(Cl)Cl (stereo not given),0.878
23,"C[C@@H]1C(=O)O[C@H]2[C@H]1CC[C@@]1(C)C=CC(=O)[C@@]3(C)O[C@@]213 [""EPOXY (4,5alpha)-4,5-DIHYDROSANTONIN""]",1.07
24,C=CCN1CC[C@]23c4c5ccc(O)c4O[C@H]2C(=O)CC[C@@]3(O)[C@H]1C5,1.02
25,C=CCN1CC[C@]23c4c5ccc(O)c4O[C@H]2C(=O)CC[C@@]3(O)[C@H]1C5 [Naloxone hydrochloride],1.16 ± 0.026
26,NC(=O)c1cc(N2CC2)c([N+](=O)[O-])cc1[N+](=O)[O-],1.12
